Source: the supplement of paper PMC10689618
This is one part of the list. Repeats are few or missing, and single values can be far off.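 Labelled rat cortical synaptosomes were engulfed by primary human fetal astrocytes. Engulfment equaled a red/green ratio, corrected for calcein live-cell signal and normalized to the plate median. Compounds were toxic when calcein dropped over 30%, and reduced phagocytosis when below 70% of the median above 5 µM.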

Experiments:
Human fetal astrocytes [1] = test: loss of total cells relative to no-compound high-control median (toxicity); higher = more toxic (fewer cells); conditions: 24 h
Human fetal astrocytes [2] = test: synaptosome phagocytosis (pHrodo/calcein intensity ratio) relative to plate median of data wells; higher = more phagocytosis; conditions: 24 h

| Compound | loss of total cells (Human fetal astrocytes [1]; 1.39 µM) | loss of total cells (Human fetal astrocytes [1]; 2.78 µM) | loss of total cells (Human fetal astrocytes [1]; 5.56 µM) | loss of total cells (Human fetal astrocytes [1]; 11.11 µM) | loss of total cells (Human fetal astrocytes [1]; 22.22 µM) | synaptosome phagocytosis (Human fetal astrocytes [2]; 1.39 µM) | synaptosome phagocytosis (Human fetal astrocytes [2]; 2.78 µM) | synaptosome phagocytosis (Human fetal astrocytes [2]; 5.56 µM) | synaptosome phagocytosis (Human fetal astrocytes [2]; 11.11 µM) | synaptosome phagocytosis (Human fetal astrocytes [2]; 22.22 µM) |
| --- | --- | --- | --- | --- | --- | --- | --- | --- | --- | --- |
| O=C(O)c1cc(/N=N/c2ccc(S(=O)(=O)Nc3ccccn3)cc2)ccc1O | 2.7% | 8.5% | -7.7% | -1.4% | -10.6% | 103% | 97.1% | 113% | 103% | 96.7% |
| COC(=O)c1c(C)c2c(c(C)c1O)OC(=O)c1c(C)c(Cl)c(O)c(Cl)c1O2 | -19.2% | -12% | 33.6% | 39.4% | 4.8% | 80.8% | 100% | 108% | 58.7% | 102% |
| COc1ccccc1OCCNCC(O)COc1cccc2[nH]c3ccccc3c12 (stereo not given) [Carvedilol] | 10.5% | -10.3% | -0.6% | -4.3% | 14.6% | 154% | 108% | 98.7% | 62.3% | 56% |
| CC[N+](C)(C)Cc1ccccc1Br | 25.8% | -19.8% | -1.2% | 40.3% | 2.8% | 116% | 89% | 93.9% | 124% | 124% |
| N[C@@H](Cc1cc(I)c(Oc2ccc(O)c(I)c2)c(I)c1)C(=O)O | 9.2% | -9.2% | -11.1% | 0.3% | 42.2% | 134% | 106% | 89.2% | 112% | 122% |
| CCCC1O[C@@H]2C[C@H]3[C@@H]4CCC5=CC(=O)C=C[C@]5(C)[C@H]4[C@@H](O)C[C@]3(C)[C@]2(C(=O)CO)O1 (stereo not given in full) | 0.3% | -24.7% | -13.9% | -25.1% | -36.8% | 115% | 140% | 102% | 106% | 112% |
| Nc1ccc(S(=O)(=O)Nc2nccs2)cc1 | -16.9% | -8.5% | 2.8% | 0.3% | 21% | 98.7% | 97.1% | 88.6% | 111% | 120% |
| C[C@@H]1O[C@@H](Oc2c(-c3ccc(O)c(O)c3)oc3cc(O)cc(O)c3c2=O)[C@H](O)[C@H](O)[C@H]1O | -0.4% | 24.9% | 21% | 13.8% | 6.8% | 131% | 120% | 173% | 79.4% | 98.9% |
| CCn1cc(C(=O)O)c(=O)c2cnc(N3CCCC3)nc21 | 14.1% | -1.8% | -53.6% | -102% | 24.2% | 118% | 98.6% | 3.4% | 7.4% | 123% |
| CN[C@H](CC(C)C)C(=O)N[C@H]1C(=O)N[C@@H](CC(N)=O)C(=O)N[C@H]2C(=O)N[C@H]3C(=O)N[C@H](C(=O)N[C@H](C(=O)O)c4cc(O)cc(O)c4-c4cc3ccc4O)[C@H](O)c3ccc(c(Cl)c3)Oc3cc2cc(c3O[C@@H]2O[C@H](CO)[C@@H](O)[C@H](O)[C@H]2O[C@H]2C[C@](C)(N)[C@H](O)[C@H](C)O2)Oc2ccc(cc2Cl)[C@H]1O | 5.6% | -0.3% | 0% | 4.9% | 35% | 79.4% | 86.1% | 102% | 121% | 109% |
| C=C[C@H]1CN2CC[C@H]1C[C@H]2[C@H](O)c1ccnc2ccc(OC)cc12 | -0.3% | -13.9% | -2.8% | -10.1% | -13.1% | 82.5% | 93.2% | 99.8% | 93.9% | 96.9% |
| C[C@]12CC[C@H]3C(=CCc4cc(O)ccc43)[C@@H]1CCC2=O | 5.6% | 3.1% | -3.5% | 1.4% | -7% | 87.1% | 97.8% | 109% | 103% | 107% |
| O=c1ccc2cc(O)c(O)cc2o1 | 4% | 1.1% | 0.7% | 8.8% | 16.7% | 131% | 92.1% | 102% | 123% | 133% |
| COc1ccc2c(c1)[C@@]1(C)CC[C@@H](O)C[C@@H]1CC2 [12-METHOXY-4,4-BISNOR-5alpha-8,11,13-PODOCARPATRIEN-3-OL] | -1.8% | -2.7% | 18.3% | 16.8% | 16.7% | 97.2% | 131% | 122% | 111% | 125% |
| C[C@@H]1C[C@H]2[C@@H]3CCC4=CC(=O)C=C[C@]4(C)[C@@]3(F)[C@@H](O)C[C@]2(C)[C@@]1(O)C(=O)COP(=O)(O)O | 4.5% | -30.8% | -2.8% | -22.2% | -19.8% | 97.2% | 126% | 142% | 117% | 81.4% |
| CN(C)CCN(Cc1ccccc1)c1ccccn1 | 1.5% | -8.5% | -6.3% | -7.8% | 2.7% | 96.5% | 88.9% | 90.2% | 128% | 106% |
| N[C@@H](CCC(=O)N[C@@H](CS)C(=O)NCC(=O)O)C(=O)O | 6.1% | 6.9% | 2.9% | -4.6% | -9.8% | 119% | 122% | 110% | 126% | 116% |
| O=c1ccc2ccccc2o1 | -14.1% | 0.3% | 0.9% | -8.6% | 18.7% | 111% | 71.4% | 107% | 120% | 112% |
| O=c1c(O)c(-c2ccc(O)cc2)oc2cc(O)cc(O)c12 | -5.4% | 25.6% | 4.3% | -7.9% | 23.5% | 102% | 116% | 108% | 92.3% | 61.3% |
| Oc1c(Cl)cc(Cl)c2cccnc12 | -25.8% | 18.3% | 3.7% | 50.2% | 27.1% | 91.5% | 93.7% | 55.6% | 72.5% | 33.4% |

No new results follow: entries from further up.

| Compound | loss of total cells (Human fetal astrocytes [1]; 1.39 µM) | loss of total cells (Human fetal astrocytes [1]; 2.78 µM) | loss of total cells (Human fetal astrocytes [1]; 5.56 µM) | loss of total cells (Human fetal astrocytes [1]; 11.11 µM) | loss of total cells (Human fetal astrocytes [1]; 22.22 µM) | synaptosome phagocytosis (Human fetal astrocytes [2]; 1.39 µM) | synaptosome phagocytosis (Human fetal astrocytes [2]; 2.78 µM) | synaptosome phagocytosis (Human fetal astrocytes [2]; 5.56 µM) | synaptosome phagocytosis (Human fetal astrocytes [2]; 11.11 µM) | synaptosome phagocytosis (Human fetal astrocytes [2]; 22.22 µM) |
| --- | --- | --- | --- | --- | --- | --- | --- | --- | --- | --- |
| C[C@@H]1O[C@@H](Oc2c(-c3ccc(O)c(O)c3)oc3cc(O)cc(O)c3c2=O)[C@H](O)[C@H](O)[C@H]1O | -0.4% | 24.9% | 21% | 13.8% | 6.8% | 131% | 120% | 173% | 79.4% | 98.9% |
| CCn1cc(C(=O)O)c(=O)c2cnc(N3CCCC3)nc21 | 14.1% | -1.8% | -53.6% | -102% | 24.2% | 118% | 98.6% | 3.4% | 7.4% | 123% |

Further entries follow.

| Compound | loss of total cells (Human fetal astrocytes [1]; 1.39 µM) | loss of total cells (Human fetal astrocytes [1]; 2.78 µM) | loss of total cells (Human fetal astrocytes [1]; 5.56 µM) | loss of total cells (Human fetal astrocytes [1]; 11.11 µM) | loss of total cells (Human fetal astrocytes [1]; 22.22 µM) | synaptosome phagocytosis (Human fetal astrocytes [2]; 1.39 µM) | synaptosome phagocytosis (Human fetal astrocytes [2]; 2.78 µM) | synaptosome phagocytosis (Human fetal astrocytes [2]; 5.56 µM) | synaptosome phagocytosis (Human fetal astrocytes [2]; 11.11 µM) | synaptosome phagocytosis (Human fetal astrocytes [2]; 22.22 µM) |
| --- | --- | --- | --- | --- | --- | --- | --- | --- | --- | --- |
| CC(=O)O[C@@H]1CC2C(C)(C)[C@H](O)C=C[C@]2(C)C2CC[C@@]3(C)[C@H](c4ccoc4)OC(=O)C4OC43[C@@]21C (stereo not given in full) | 9% | 17% | 15.2% | 16.3% | 22.7% | 83.1% | 111% | 156% | 111% | 111% |
| N[C@@H](Cc1cc(I)c(Oc2ccc(O)c(I)c2)c(I)c1)C(=O)O [LIOTHYRONINE (L- isomer) SODIUM] | 16.9% | -27% | 10.6% | 3.6% | 14.6% | 94.4% | 92.8% | 109% | 80.5% | 66.2% |
| CO[C@H]1/C=C/O[C@@]2(C)Oc3c(C)c(O)c4c(O)c(c(/C=N/N5CCN(C)CC5)c(O)c4c3C2=O)NC(=O)/C(C)=C\C=C\[C@H](C)[C@H](O)[C@@H](C)[C@@H](O)[C@@H](C)[C@H](OC(C)=O)[C@@H]1C | -0.3% | -28.1% | 4.9% | 11.2% | 8.8% | 104% | 131% | 118% | 123% | 95.9% |
| CO[C@@H]1[C@@H](OC(N)=O)[C@@H](O)[C@H](Oc2ccc3c(O)c(NC(=O)c4ccc(O)c(CC=C(C)C)c4)c(=O)oc3c2C)OC1(C)C | 6.6% | 5.8% | 21.9% | 21.1% | 23.8% | 112% | 106% | 113% | 120% | 112% |
| Cc1cc(O)c(C=O)c(O)c1C(=O)O | -18.9% | -9% | 8.1% | 2% | 1.5% | 95% | 65.2% | 146% | 92.1% | 117% |
| O=C([O-])CN(CCN(CC(=O)[O-])CC(=O)O)CC(=O)[O-].[Na+].[Na+].[Na+] | -3.9% | -8.5% | 0% | -5.5% | 32.5% | 119% | 115% | 96.4% | 122% | 133% |
| Nc1nc(=O)[nH]cc1F | 16.1% | -46% | 11.8% | -12.1% | 9% | 150% | 94.5% | 112% | 87.6% | 105% |
| C[C@]12CC[C@@H]3c4ccc(O)cc4CC[C@H]3[C@@H]1CC[C@@H]2OC(=O)CCC1CCCC1 | -12.8% | -5.1% | -12.5% | 27.4% | -8.2% | 80% | 67.6% | 79.1% | 91.1% | 83.8% |
| COc1cc(O)c2c(=O)cc(C)oc2c1CC=C(C)C | 16.3% | 10% | -9.2% | 45.8% | -9.3% | 157% | 79.3% | 86.2% | 112% | 91.2% |
| COc1ccc2cc([C@H](C)CO)ccc2c1 | -32.3% | -13.5% | 12.4% | 31.1% | 6.5% | 115% | 101% | 118% | 135% | 122% |
| CC1(C)C(=O)C=CC2(C)C1C=CC1(C)C2CCC2(C)C(c3ccoc3)OC(=O)C3OC312 (stereo not given) | -18.5% | -4% | 15.3% | 7.7% | 12.2% | 95.9% | 104% | 79.2% | 60.2% | 63.1% |
| CO[C@@H]1[C@@H](O[C@@H]2O[C@H](C)[C@@H](O[C@H]3C[C@@](C)(O)[C@@H](OC(=O)CC(C)C)[C@H](C)O3)[C@H](N(C)C)[C@H]2O)[C@@H](CC=O)C[C@@H](C)[C@@H](O)/C=C/C=C/C[C@@H](C)OC(=O)C[C@H]1OC(C)=O | -22.4% | -11.9% | -2.1% | -13.3% | 7.9% | 134% | 113% | 117% | 142% | 118% |
| COC(=O)Nc1nc2cc([S+]([O-])c3ccccc3)ccc2[nH]1 (stereo not given) | -25% | 0.8% | -1.2% | 31.1% | -11.5% | 109% | 114% | 98.8% | 124% | 106% |
| CC1(C)C(O[C@@H]2OC[C@@H](O)[C@H](O)[C@H]2O)CC[C@]23CC24CC[C@]2(C)[C@@H]([C@@]5(C)CC[C@@H](C(C)(C)O)O5)[C@H](O)C[C@@]2(C)C4C[C@@H](O[C@@H]2O[C@H](CO)[C@@H](O)[C@H](O)[C@H]2O)C13 (stereo not given in full) | -26.2% | 7.6% | -6.6% | 8.1% | 10.4% | 78% | 112% | 116% | 81.6% | 106% |
| CN(C)CCOC(c1ccccc1)c1ccccc1.Cn1c(=O)c2[nH]c(Cl)nc2n(C)c1=O | 15.1% | -28.1% | -5.6% | 11.2% | -36.2% | 132% | 134% | 92.7% | 109% | 82.9% |
| COc1ccc(CN(CCN(C)C)c2ncccn2)cc1 | -28.2% | -3.2% | -6.8% | 45.6% | 0.9% | 97.8% | 122% | 93.1% | 126% | 97.4% |
| COc1ccc2c(c1)OCC(Cc1ccc(OC)c(O)c1)C2=O (stereo not given) | 1.1% | 9.3% | -10.7% | 41.3% | -8.5% | 131% | 127% | 55.5% | 92.8% | 93.9% |
| C[C@@H]1C(=O)O[C@H]2C[C@@]34[C@H]5C[C@@H](C(C)(C)C)[C@]36[C@@H](OC(=O)[C@@H]6O)O[C@@]4(C(=O)O5)[C@]21O | 16.2% | 6.1% | 3.6% | 2.1% | 27.3% | 144% | 142% | 110% | 113% | 126% |
| Cn1c(=O)c2c(ncn2CC(O)CO)n(C)c1=O (stereo not given) | -22.3% | -7.1% | -14.6% | 7.2% | 33.7% | 122% | 131% | 105% | 96.2% | 110% |
